Data: patent US20220380454A1
No constants are given. Whether binding was seen depends on the method and setting. In cells and extracts the contact can be indirect. Some entries that bind do so weakly or less than the wild type. Where a sequence is shown, tags or fusion partners need not be part of it.

Sequences of proteins named here, by UniProt entry; tags and fusion partners are left off. Residues count along the entry.
UniProt Q91ZI0, residues 32-3301: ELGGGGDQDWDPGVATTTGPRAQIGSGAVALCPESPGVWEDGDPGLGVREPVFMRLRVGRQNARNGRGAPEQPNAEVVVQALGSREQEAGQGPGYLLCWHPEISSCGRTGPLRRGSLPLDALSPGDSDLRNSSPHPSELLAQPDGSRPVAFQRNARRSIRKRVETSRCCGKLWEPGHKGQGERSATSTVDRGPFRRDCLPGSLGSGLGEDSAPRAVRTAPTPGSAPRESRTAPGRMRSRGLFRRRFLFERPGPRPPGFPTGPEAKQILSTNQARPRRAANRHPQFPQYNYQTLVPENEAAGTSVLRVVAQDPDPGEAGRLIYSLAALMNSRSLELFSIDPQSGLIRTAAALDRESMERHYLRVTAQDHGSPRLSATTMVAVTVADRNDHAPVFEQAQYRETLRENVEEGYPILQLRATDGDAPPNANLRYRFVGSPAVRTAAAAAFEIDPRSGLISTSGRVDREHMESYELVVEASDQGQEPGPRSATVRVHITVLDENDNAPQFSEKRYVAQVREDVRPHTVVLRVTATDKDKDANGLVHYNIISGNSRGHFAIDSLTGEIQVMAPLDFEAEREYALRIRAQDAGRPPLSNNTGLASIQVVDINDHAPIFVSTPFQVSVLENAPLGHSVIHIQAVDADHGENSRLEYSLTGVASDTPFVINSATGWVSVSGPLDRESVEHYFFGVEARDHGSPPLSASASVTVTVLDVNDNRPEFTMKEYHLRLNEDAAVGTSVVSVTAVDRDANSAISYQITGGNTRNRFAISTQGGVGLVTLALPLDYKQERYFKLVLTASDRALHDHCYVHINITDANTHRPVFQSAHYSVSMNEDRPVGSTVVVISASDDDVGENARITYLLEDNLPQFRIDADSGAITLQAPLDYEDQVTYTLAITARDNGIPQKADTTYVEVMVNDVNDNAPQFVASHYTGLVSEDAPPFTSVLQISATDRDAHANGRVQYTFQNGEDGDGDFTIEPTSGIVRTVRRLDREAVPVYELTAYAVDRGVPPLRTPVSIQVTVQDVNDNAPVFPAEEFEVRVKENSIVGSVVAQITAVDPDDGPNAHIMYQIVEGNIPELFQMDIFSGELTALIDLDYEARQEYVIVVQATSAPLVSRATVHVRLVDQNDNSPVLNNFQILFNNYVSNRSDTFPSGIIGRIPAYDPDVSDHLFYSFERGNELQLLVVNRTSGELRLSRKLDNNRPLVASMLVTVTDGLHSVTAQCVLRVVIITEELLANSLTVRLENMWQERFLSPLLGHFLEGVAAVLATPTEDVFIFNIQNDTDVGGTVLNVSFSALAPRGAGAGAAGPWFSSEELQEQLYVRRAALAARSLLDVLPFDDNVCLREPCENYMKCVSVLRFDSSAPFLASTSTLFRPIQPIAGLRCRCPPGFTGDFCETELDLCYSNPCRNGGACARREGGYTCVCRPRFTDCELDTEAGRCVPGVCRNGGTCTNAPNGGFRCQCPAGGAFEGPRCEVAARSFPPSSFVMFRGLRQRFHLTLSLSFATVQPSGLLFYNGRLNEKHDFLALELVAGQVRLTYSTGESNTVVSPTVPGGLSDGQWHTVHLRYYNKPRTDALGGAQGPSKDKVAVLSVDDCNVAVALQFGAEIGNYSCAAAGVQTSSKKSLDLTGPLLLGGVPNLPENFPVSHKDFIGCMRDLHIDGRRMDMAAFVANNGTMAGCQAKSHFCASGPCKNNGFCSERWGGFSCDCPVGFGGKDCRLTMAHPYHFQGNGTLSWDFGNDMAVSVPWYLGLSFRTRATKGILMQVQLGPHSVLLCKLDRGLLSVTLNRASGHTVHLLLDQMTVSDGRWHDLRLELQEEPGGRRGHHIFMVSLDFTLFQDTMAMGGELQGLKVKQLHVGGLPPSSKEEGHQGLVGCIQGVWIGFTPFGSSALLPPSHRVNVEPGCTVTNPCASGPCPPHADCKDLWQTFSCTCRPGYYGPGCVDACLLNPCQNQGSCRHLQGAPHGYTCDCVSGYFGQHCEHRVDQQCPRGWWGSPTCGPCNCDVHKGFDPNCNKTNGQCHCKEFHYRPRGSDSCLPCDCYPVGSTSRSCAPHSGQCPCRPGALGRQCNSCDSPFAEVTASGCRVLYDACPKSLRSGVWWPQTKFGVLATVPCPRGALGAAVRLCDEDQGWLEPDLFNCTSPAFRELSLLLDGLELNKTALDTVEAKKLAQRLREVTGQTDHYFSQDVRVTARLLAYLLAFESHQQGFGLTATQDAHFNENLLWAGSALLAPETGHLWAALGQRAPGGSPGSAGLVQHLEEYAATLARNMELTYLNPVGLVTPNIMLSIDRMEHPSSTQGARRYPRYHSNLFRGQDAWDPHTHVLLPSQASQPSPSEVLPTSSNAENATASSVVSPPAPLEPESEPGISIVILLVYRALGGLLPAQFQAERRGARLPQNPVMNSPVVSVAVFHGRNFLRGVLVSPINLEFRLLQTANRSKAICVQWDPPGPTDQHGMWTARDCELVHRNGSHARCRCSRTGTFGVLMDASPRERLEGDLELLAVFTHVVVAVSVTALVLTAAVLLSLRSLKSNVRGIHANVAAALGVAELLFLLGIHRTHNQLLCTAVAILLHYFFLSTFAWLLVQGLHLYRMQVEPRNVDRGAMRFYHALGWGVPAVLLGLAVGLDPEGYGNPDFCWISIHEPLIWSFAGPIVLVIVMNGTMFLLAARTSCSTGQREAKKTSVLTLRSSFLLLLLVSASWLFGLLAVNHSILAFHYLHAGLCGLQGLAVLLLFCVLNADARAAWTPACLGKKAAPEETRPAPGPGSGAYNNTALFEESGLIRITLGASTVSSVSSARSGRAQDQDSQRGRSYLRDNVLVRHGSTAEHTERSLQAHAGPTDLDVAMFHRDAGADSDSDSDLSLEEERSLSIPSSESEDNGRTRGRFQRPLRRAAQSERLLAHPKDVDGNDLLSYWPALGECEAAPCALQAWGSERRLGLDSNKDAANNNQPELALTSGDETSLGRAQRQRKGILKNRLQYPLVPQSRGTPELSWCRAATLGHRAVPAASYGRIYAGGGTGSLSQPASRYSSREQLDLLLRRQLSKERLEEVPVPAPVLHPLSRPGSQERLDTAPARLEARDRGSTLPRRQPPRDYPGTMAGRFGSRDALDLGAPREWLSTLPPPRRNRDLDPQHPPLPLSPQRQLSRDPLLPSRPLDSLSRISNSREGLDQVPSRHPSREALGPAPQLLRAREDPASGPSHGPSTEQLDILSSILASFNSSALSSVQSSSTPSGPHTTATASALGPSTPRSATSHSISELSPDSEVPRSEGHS

Columns and labels:
[1] = molecular target: T1, Frizzled3-HA (Mus musculus (Mouse)) (UniProt Q61086); experiment: co-IP (IP: Flag, blot HA) and its quantification; both proteins in the same HEK293T cell
T1 sequence: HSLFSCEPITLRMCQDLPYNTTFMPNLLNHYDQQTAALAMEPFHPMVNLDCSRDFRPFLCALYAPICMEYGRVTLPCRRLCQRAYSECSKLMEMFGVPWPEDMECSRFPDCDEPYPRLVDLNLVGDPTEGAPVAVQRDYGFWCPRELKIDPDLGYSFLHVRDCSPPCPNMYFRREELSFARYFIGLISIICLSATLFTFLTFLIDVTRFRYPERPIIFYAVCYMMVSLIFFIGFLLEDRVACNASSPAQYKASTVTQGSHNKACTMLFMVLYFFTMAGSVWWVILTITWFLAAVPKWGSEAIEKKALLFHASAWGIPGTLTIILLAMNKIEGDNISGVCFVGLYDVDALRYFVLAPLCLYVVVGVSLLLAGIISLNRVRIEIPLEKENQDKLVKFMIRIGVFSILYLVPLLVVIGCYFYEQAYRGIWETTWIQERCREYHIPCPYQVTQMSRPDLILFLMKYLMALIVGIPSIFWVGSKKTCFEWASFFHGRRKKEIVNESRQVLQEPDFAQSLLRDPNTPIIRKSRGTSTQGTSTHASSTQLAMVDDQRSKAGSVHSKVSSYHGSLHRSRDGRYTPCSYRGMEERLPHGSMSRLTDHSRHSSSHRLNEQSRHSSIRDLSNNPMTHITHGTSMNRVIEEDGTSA

[2] = molecular target: T1, Frizzled3-HA (Mus musculus (Mouse)); experiment: co-IP of the intercellular complex (IP: Flag, blot HA); Frizzled3-HA and Celsr3-IRES in cell a, Celsr3-flag with or without Flag-Vangl2 in cell b, with or without Aβ oligomer
[3] = molecular target: T1, Frizzled3-HA (Mus musculus (Mouse)); experiment: co-IP of the intercellular complex (IP: Flag, blot HA), quantified; Frizzled3-HA and Celsr3-IRES in cell a, Celsr3-flag with or without Flag-Vangl2 in cell b, with or without Aβ oligomer

Measured: binding

mouse Celsr3 (Celsr3-Flag) (from UniProt Q91ZI0 32-3301) (receptor)
binds: [1] | [2] | [3]
